Paper PMC6406557
For at least one entry, the source does not settle the construct or the ends of the probe. Weaker means in comparison with the reference protein, sequence or condition of that experiment.

Biological target: lysozyme (UniProt P00698)
Assay: pull-down on aptamer-functionalized magnetic nanoparticles (adsorption)
Conditions: 1 M NaCl, 5'-aldehyde, coupled as imine to NH2-Fe3O4 nanoparticles, Adsorption optimum: 4.0 mg/mL lysozyme, 60 min, pH 9.0, 37 C, 0 M NaCl, egg white: mixed 1:1 with 20 mM PBS pH 7.2-8.0, 10 mg NPs per mL, commercial protein, single-stranded DNA

Q: Does “TTTTTTATCAGGGCTAAAGAGTGC [lysozyme aptamer]” bind?
A: binds more weakly
